The results in this text go back to paper PMC6911077.

The chains behind the UniProt entries cited, without tags or fusion partners.
UniProt P78527: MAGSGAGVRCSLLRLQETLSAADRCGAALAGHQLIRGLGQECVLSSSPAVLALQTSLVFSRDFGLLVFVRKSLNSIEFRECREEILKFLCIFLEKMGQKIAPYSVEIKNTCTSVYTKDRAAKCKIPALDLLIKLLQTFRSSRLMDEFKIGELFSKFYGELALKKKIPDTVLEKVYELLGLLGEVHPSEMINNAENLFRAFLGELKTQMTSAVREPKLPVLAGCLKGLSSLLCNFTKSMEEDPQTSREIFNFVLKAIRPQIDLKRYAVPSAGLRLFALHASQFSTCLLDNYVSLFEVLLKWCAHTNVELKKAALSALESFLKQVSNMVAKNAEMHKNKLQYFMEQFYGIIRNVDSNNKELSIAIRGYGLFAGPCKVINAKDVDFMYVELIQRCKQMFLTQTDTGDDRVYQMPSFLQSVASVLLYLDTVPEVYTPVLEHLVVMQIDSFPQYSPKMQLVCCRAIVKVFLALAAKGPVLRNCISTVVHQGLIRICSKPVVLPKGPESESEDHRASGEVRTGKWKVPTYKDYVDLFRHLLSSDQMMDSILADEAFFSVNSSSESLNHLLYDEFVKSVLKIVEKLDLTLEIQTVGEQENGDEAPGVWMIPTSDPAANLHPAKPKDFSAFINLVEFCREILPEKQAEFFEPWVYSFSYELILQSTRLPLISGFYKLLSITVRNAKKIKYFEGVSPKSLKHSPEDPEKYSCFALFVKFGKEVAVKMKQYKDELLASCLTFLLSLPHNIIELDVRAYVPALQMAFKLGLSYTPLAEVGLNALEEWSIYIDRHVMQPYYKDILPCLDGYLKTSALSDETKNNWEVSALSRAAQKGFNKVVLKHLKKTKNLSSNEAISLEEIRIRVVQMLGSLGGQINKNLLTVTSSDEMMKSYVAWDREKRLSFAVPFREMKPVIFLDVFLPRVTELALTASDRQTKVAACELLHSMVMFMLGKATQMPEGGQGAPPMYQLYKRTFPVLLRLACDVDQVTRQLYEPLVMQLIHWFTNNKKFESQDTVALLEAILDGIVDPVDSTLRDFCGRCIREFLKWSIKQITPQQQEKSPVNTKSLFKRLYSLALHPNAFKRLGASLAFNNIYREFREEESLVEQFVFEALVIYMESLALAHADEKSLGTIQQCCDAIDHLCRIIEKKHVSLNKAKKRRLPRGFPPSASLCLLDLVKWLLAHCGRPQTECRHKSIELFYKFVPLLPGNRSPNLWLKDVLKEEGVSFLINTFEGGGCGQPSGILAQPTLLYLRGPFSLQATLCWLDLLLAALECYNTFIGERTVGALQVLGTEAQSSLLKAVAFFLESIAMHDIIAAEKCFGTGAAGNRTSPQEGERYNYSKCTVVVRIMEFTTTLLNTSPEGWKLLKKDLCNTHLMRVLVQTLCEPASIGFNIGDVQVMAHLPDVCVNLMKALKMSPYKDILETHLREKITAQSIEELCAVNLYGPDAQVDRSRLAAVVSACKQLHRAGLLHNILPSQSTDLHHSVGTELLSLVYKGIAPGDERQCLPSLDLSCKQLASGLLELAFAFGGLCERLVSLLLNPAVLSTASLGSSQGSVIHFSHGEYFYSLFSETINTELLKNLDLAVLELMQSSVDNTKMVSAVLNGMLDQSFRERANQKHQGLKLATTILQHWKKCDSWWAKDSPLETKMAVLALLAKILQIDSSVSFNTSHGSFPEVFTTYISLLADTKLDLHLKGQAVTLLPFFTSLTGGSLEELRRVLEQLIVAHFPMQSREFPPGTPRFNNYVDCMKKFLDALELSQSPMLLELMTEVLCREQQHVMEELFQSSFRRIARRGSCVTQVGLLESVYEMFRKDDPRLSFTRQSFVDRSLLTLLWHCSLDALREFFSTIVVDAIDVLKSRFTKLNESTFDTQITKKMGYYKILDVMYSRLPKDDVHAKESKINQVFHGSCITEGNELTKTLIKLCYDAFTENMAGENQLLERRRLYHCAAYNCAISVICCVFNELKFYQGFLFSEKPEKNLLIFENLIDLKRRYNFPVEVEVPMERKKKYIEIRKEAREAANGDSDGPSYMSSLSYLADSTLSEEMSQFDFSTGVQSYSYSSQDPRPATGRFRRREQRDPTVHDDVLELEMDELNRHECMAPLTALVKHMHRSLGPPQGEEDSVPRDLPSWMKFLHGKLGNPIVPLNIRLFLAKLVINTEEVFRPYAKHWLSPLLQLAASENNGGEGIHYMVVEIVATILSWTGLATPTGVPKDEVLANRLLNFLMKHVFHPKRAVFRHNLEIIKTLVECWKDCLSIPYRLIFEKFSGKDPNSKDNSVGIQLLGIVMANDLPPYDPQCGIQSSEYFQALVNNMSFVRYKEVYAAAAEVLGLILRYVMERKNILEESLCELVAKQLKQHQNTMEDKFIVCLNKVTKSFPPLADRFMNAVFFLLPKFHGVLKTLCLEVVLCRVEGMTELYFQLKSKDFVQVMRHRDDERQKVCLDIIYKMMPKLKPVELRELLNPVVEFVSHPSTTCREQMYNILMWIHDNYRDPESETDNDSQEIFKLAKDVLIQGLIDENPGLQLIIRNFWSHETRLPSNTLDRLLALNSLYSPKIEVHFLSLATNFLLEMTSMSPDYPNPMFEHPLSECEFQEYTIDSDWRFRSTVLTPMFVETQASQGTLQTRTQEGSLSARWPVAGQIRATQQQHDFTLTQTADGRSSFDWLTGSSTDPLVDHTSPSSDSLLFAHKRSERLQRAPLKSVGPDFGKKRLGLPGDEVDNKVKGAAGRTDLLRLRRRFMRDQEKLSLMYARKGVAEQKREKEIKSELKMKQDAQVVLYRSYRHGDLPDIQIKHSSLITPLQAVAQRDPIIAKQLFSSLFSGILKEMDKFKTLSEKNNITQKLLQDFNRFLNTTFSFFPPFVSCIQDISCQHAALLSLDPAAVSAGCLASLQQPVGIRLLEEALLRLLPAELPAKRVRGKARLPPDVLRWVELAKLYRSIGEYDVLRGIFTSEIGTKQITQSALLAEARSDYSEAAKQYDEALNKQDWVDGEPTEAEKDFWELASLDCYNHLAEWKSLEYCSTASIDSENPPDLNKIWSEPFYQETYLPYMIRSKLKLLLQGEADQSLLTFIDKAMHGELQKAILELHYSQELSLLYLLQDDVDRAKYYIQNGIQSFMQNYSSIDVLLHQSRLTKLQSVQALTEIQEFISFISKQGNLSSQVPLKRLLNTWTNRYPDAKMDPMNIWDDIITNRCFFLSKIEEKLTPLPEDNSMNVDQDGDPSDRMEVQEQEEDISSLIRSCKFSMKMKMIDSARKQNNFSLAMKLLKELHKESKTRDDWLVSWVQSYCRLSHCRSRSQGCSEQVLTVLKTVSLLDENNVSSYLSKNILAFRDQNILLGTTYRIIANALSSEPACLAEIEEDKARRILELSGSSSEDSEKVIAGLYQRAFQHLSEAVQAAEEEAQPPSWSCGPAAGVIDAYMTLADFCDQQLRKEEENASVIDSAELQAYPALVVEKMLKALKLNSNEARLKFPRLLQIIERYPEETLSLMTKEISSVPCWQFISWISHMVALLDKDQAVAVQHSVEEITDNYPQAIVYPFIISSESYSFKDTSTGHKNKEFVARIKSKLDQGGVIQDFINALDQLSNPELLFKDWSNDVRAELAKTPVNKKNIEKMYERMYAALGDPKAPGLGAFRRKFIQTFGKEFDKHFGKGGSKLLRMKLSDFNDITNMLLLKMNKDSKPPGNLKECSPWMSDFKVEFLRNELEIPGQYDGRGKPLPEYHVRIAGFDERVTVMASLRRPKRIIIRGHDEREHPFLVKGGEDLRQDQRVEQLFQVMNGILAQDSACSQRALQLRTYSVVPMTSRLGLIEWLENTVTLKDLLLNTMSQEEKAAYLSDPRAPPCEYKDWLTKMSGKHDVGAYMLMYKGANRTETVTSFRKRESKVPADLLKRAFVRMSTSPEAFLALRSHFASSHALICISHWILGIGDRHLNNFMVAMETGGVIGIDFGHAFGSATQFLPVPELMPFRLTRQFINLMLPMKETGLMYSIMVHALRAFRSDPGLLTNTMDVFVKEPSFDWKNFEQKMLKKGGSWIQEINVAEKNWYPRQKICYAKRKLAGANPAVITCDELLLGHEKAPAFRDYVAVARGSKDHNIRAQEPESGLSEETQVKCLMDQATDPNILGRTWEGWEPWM

No constants are given. Whether binding was seen depends on the method and setting. In cells and extracts the contact can be indirect. Some results given as binding are weak or reduced against the parent protein; the word gives no strength. Where a sequence is shown, tags or fusion partners need not be part of it.

This assay deals with T1, endogenous RAP1 (human (endogenous; cell line not named for this experiment)) (UniProt Q9NYB0).
T1 sequence: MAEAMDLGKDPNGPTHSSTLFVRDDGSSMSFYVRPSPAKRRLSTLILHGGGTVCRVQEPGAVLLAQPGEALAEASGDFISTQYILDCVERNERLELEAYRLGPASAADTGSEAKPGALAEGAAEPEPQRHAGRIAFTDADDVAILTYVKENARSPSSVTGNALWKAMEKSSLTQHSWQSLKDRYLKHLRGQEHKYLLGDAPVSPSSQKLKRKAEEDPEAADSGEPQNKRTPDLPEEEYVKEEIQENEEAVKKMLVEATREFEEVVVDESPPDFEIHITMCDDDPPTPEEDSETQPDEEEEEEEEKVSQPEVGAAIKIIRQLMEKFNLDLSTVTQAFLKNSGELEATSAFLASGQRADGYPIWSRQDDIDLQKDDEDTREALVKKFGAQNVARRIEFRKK
Nature of the assay: SEC + co-IP; size exclusion chromatography of cell extracts followed by endogenous RAP1 IP and immunoblot; untreated cells, also Dox and CPT treated. A general note: Size exclusion chromatography separates by hydrodynamic size, large species first.

With DNA-PK (from UniProt P78527 1-4128), the binding entry was “binds”.
